The results in this text go back to paper PMC6939424.

For the experiment, the target named is T1, High mobility group box 1 (rat (endogenous in BMSCs)), P63159.
T1 chain: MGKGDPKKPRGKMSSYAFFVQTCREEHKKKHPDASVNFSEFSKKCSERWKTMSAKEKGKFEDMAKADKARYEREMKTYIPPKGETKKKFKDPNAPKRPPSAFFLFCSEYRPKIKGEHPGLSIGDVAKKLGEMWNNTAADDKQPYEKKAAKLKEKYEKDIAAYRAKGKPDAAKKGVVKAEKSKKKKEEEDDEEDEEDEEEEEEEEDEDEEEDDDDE
Kind of experiment: co-IP; lysates of rat BMSCs kept in NG (5.5 mM glucose), HG (35 mM glucose) or HG+GL (35 mM glucose + 10 uM glycyrrhizin) medium, incubation for 3 days; precipitated with anti-HMGB1 antibody and protein A/G plus agarose at 4°C, blotted with anti-RAGE antibody; lysis buffer 140 mM NaCl, 1 mM EDTA, 10% glycerol, 1% NP40, 20 mM Tris-HCl pH 7.5. Particulars: remark: other sources report otherwise.

Results are given in words; binding and its absence hold for the method and conditions named. In cells and extracts the contact can be indirect. Some results given as binding are weak or reduced against the parent protein; the word gives no strength.

B1: receptor for advanced glycation end products, Q63495 23-402 (receptor)
chain: GQNITARIGEPLMLSCKGAPKKPTQKLEWKLNTGRTEAWKVLSPQGDPWDSVARILPNGSLLLPAIGIVDEGTFRCRATNRLGKEVKSNYRVRVYQIPGKPEIVNPASELTANVPNKVGTCVSEGSYPAGTLSWHLDGKPLIPDGKGTVVKEETRRHPETGLFTLRSELTVTPAQGGTTPTYSCSFSLGLPRRRPLNTAPIQPRVREPLPPEGIQLLVEPEGGTVAPGGTVTLTCAISAQPPPQIHWIKDGTPLPLAPSPVLLLPEVGHEDEGIYSCVATHPSHGPQESPPVNIRVTETGDEGQAAGSVDGSGLGTLALALGILGGLGIAALLIGAILWRKRQPRLEERKAPESQEDEEERAELNQSEEAEMPENGAGGP
For the molecule B1, the binding result is listed as “binds”.
